Experiment in all cases: activity in cells
Data set [1] deals with T1, M12-H6 (muscle-penetrating peptide M12-spacer-hexahistidine) (Artificial).
T1 sequence: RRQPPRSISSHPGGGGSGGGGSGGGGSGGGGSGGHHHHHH
As to conditions: indirect: luciferase in mouse biceps femoris, complex with vs without chloroquine; 2.7-fold above MB8-luc2; purified recombinant protein; protein details: C-terminal H6; dose not given here.

Data set [2] relates to T2, CPP3-H6 (Artificial).
T2 sequence: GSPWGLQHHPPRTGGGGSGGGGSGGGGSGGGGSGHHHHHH
Conditions: 0.7 mM MgCl2, 5 mM Hepes, purified recombinant protein, protein details: C-terminal H6.

For data set [3], the system named is T3, CPP1-H6 (Artificial).
T3 sequence: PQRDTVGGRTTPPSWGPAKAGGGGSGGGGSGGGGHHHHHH
Conditions: indirect: luciferase expression in mouse dermis vs MB11-luc2 alone, 1 peptide:4 mRNA, 0.7 mM MgCl2, 5 mM Hepes, 160 mM NaCl; purified recombinant protein; protein details: C-terminal H6.

The subject of data set [4] is T4, CPP2-H6 (Artificial).
T4 sequence: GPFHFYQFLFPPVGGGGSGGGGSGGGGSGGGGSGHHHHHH
Conditions: 2 peptide:1 mRNA, 0.7 mM MgCl2, 5 mM Hepes, purified recombinant protein, protein details: C-terminal H6.

Where a protein sequence is shown, tags need not be part of it. For part of these data: For at least one entry, the source does not settle the construct or the ends of the probe. For part of these data: Negatives hold for the conditions tested.

In the case of “GGGAAGCUUAAGUGGUGAGGUAUAUUGGCGCCUUCGUGGAAUGUCAGUGCCUCACCAGCAUGCCUUCCCAAAAAAGUCAGGCCAGAUUAAUGCUGCCACCGGAAGUUGAGUAGACGGUGCUGCCUGCGGCUCAACCCCAGGAGGACUGGGUGACCAAAGCUGCGAGGUGAUCCACGUAAGCCCUCAGAACCGUCUCGGAAGGAGGACCCCACGUGCUUUAGCCUCAAAGCCCAGUGUCAGACCACACUUUAAUGUGCCACUCUGCGGAGAGUGCAGUCUGCGAUAGUGCCCCAGGUGGACUGGGUUAACAAAGGCAAAACAUUACUGGCCGAAGCCGCUUGGAAUAAGGCCGGUGUGCGUUUGUCUAUAUGUUAUUUUCCACCAUAUUGCCGUCUUUUGGCAAUGUGAGGGCCCGGAAACCUGGCCCUGUCUUCUUGACGAGCAUUCCUAGGGGUCUUUCCCCUCUCGCCAAAGGAAUGCAAGGUCUGUUGAAUGUCGUGAAGGAAGCAGUUCCUCUGGAAGCUUCUUGAAGACAAACAACGUCUGUAGCGACCCUUUGCAGGCAGCGGAACCCCCCACCUGGCGACAGGUGCCUCUGCGGCCAAAAGCCACGUGUAUAAGAUACACCUGCAAAGGCGGCACAACCCCAGUGCCACGUUGUGAGUUGGAUAGUUGUGGAAAGAGUCAAAUGGCUCUCCUCAAGCGUAUUCAACAAGGGGCUGAAGGAUGCCCAGAAGGUACCCCAUUGUAUGGGAUCUGAUCUGGGGCCUCGGUGCACAUGCUUUACAUGUGUUUAGUCGAGGUUAAAAAACGUCUAGGCCCCCCGAACCACGGGGACGUGGUUUUCCUUUGAAAAACACGAUGAUAAU [MB11-luc2 mRNA 5'-UTR carrying aptamer A]”, the functional effect of the aptamer stood at 31 fold in data set [1]; 9.2 fold in data set [2] (indirect: luciferase expression in mouse dermis vs MB11-luc2 alone, 1 peptide:2 mRNA, 160 mM NaCl); 5.4 fold in data set [3]; 10.6 fold in data set [4] (indirect: luciferase expression in mouse dermis vs MB11-luc2 alone, 160 mM NaCl).

As to “GGGAAGCUUAAGCUUCCCAAAAAAGUCAGGCCAGAUUAAUGCUGCCACCGGAAGUUGAGUAGACGGUGCUGCCUGCGGCUCAACCCCAGGAGGACUGGGUGACCAAAGCUGCGAGGUGAUCCACGUAAGCCCUCAGAACCGUCUCGGAAGGAGGACCCCACGUGCUUUAGCCUCAAAGCCCAGUGUCAGACCACACUUUAAUGUGCCACUCUGCGGAGAGUGCAGUCUGCGAUAGUGCCCCAGGUGGACUGGGUUAACAAAGGCAAAACAUUACUGGCCGAAGCCGCUUGGAAUAAGGCCGGUGUGCGUUUGUCUAUAUGUUAUUUUCCACCAUAUUGCCGUCUUUUGGCAAUGUGAGGGCCCGGAAACCUGGCCCUGUCUUCUUGACGAGCAUUCCUAGGGGUCUUUCCCCUCUCGCCAAAGGAAUGCAAGGUCUGUUGAAUGUCGUGAAGGAAGCAGUUCCUCUGGAAGCUUCUUGAAGACAAACAACGUCUGUAGCGACCCUUUGCAGGCAGCGGAACCCCCCACCUGGCGACAGGUGCCUCUGCGGCCAAAAGCCACGUGUAUAAGAUACACCUGCAAAGGCGGCACAACCCCAGUGCCACGUUGUGAGUUGGAUAGUUGUGGAAAGAGUCAAAUGGCUCUCCUCAAGCGUAUUCAACAAGGGGCUGAAGGAUGCCCAGAAGGUACCCCAUUGUAUGGGAUCUGAUCUGGGGCCUCGGUGCACAUGCUUUACAUGUGUUUAGUCGAGGUUAAAAAACGUCUAGGCCCCCCGAACCACGGGGACGUGGUUUUCCUUUGAAAAACACGAUGAUAAU [MB8-luc2 mRNA 5'-UTR (no aptamer A)]”, in data set [2] (indirect: no significant effect on transfection of mRNA lacking aptamer A), the “functional effect of the aptamer” value was “not active”.

Consider “GGGAAGCUUAAGUGUUCUUUUUGCAGAAGCUCAGAAUUGGUGAGGUAUAUUGGCGCCUUCGUGGAAUGUCAGUGCCUCACCAGCAUGCAAACGCUCAACUUUGGCAGAUCUACC [MB15-luc2 capped mRNA 5'-UTR carrying aptamer A]”, for which the functional effect of the aptamer in data set [4] (5' cap, indirect: luciferase in mouse dermis vs MB15-luc2 alone) was 1.48 fold.
